Reference: PubChem BioAssay AID1053208 (Peter MacCallum Cancer Centre, 2014)
Purpose: 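Find knock-downs that sensitise mouse osteosarcoma cells to doxorubicin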 (primary screen). Cells: mouse osteosarcoma cells, early-passage culture from an engineered mouse model of fibroblastic bone tumour. Knock-down reagent: siRNA pool against mouse genes, 40 nM. Timing: about 120 h (48 h before drug, then 72 h with drug). Challenge: doxorubicin 100 nM for 72 h, roughly 30-40% inhibitory dose. Measured: 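Viability read as ATP luminescence after 72 h of 100 nM doxorubicin or none, duplicate wells averaged, scaled to non-targeting siRNA, then expressed as robust z-scores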. Scale: viability z-score with doxorubicin and doxorubicin viability vs non-targeting: higher = more viable cells under doxorubicin; viability z-score without drug: higher = more viable cells with knock-down alone; z-score of drug to no-drug ratio: higher = less drug sensitisation by knock-down. Rule for the call: 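Called active if knock-down leaves viability unchanged without drug (z within -2 to 2) but lowers it with doxorubicin (z at or under -2)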.
The whole screen tested about 17,000 reagents; this is an unselected part. Over the whole deposit, 788 (4.7%) were called active. 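Calls rest on z-score classes alone; an extra cut-off of viability at most 70% of control was not applied to them.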 Reagents against one gene are numbered here.

target gene | reagent no. | combined z-score class | viability z-score with doxorubicin | viability z-score without drug | z-score of drug to no-drug ratio | doxorubicin viability vs non-targeting | outcome
Trappc2 | 1 | no change with or without drug | -0.11 | -0.17 | 0.11 | 0.93 | inactive
Ifrd2 | 1 | no change with or without drug | -1.57 | 1.01 | -2.14 | 0.8 | inactive
Mcm4 | 1 | no change with or without drug | 1.24 | 0.84 | 0.79 | 1.05 | inactive
Sergef | 1 | no change with or without drug | 0 | -0.84 | 0.67 | 0.94 | inactive
Krt1 | 1 | no change with or without drug | -0.67 | 1.18 | -1.35 | 0.88 | inactive
Prmt8 | 1 | no change with or without drug | 0.34 | -0.17 | 0.56 | 0.97 | inactive
Sprr2k | 1 | no change with or without drug | 1.35 | -0.34 | 1.8 | 1.06 | inactive
Mrrf | 1 | no change with or without drug | -0.67 | -0.17 | -0.45 | 0.88 | inactive
Nipa1 | 1 | no change with or without drug | -0.67 | 0.51 | -0.9 | 0.88 | inactive
2310033P09Rik | 1 | no change with or without drug | -1.46 | -0.51 | -1.12 | 0.81 | inactive
Or2p2 | 1 | no change with or without drug | 0.67 | 0.17 | 0.67 | 1 | inactive
Vmn1r69 | 1 | no change with or without drug | -1.01 | -0.84 | -0.45 | 0.85 | inactive
Baiap2 | 1 | no change with or without drug | 1.12 | 0.51 | 0.9 | 1.04 | inactive
Gimap7 | 1 | no change with or without drug | 0.45 | 0.51 | 0.22 | 0.98 | inactive
Rasa2 | 1 | high cell count without drug only | 0.67 | 2.53 | -0.79 | 1 | inactive
Serpinb6a | 1 | no change with or without drug | -0.45 | 1.18 | -1.12 | 0.9 | inactive
Gprin1 | 1 | no change with or without drug | 0 | 0.34 | -0.11 | 0.94 | inactive

Continued, starting with the last 2 of the part before.
target gene | reagent no. | combined z-score class | viability z-score with doxorubicin | viability z-score without drug | z-score of drug to no-drug ratio | doxorubicin viability vs non-targeting | outcome
Serpinb6a | 1 | no change with or without drug | -0.45 | 1.18 | -1.12 | 0.9 | inactive
Gprin1 | 1 | no change with or without drug | 0 | 0.34 | -0.11 | 0.94 | inactive
Aadacl4fm1 | 1 | low cell count with doxorubicin only | -2.02 | -0.84 | -1.57 | 0.76 | active
Stoml3 | 1 | no change with or without drug | 0.67 | 1.01 | 0.11 | 1 | inactive
D830013H23Rik | 1 | no change with or without drug | 0 | 1.35 | -0.79 | 0.94 | inactive
Gdpgp1 | 1 | no change with or without drug | -1.57 | 0.84 | -2.02 | 0.8 | inactive
Vps52 | 1 | no change with or without drug | -0.67 | 0.51 | -0.9 | 0.88 | inactive
Pou2f1 | 1 | high cell count without drug only | 0.9 | 2.19 | -0.45 | 1.02 | inactive
Mtrr | 1 | no change with or without drug | -0.34 | -1.18 | 0.56 | 0.91 | inactive
Slc7a13 | 1 | no change with or without drug | 0.67 | 0.34 | 0.56 | 1 | inactive
Crabp1 | 1 | no change with or without drug | 1.57 | -0.34 | 2.02 | 1.08 | inactive
Cep43 | 1 | no change with or without drug | -0.56 | 0.84 | -1.01 | 0.89 | inactive
Or6z5 | 1 | no change with or without drug | 0.45 | 0.84 | 0 | 0.98 | inactive
Rbak | 1 | no change with or without drug | 1.69 | 1.85 | 0.56 | 1.09 | inactive
Ptger3 | 1 | no change with or without drug | 0.22 | -0.34 | 0.56 | 0.96 | inactive
Aars1 | 1 | high cell count without drug only | 1.57 | 2.19 | 0.22 | 1.08 | inactive
Liat1 | 1 | no change with or without drug | -1.8 | 0.84 | -2.25 | 0.78 | inactive
Tcl1b4 | 1 | no change with or without drug | -1.12 | -1.85 | 0.22 | 0.84 | inactive
B4galnt2 | 1 | no change with or without drug | 1.12 | 0.51 | 0.9 | 1.04 | inactive
Rad23a | 1 | no change with or without drug | 0.11 | -0.17 | 0.34 | 0.95 | inactive
Glyat | 1 | no change with or without drug | 1.12 | -0.84 | 2.02 | 1.04 | inactive
Cxcl11 | 1 | no change with or without drug | -1.12 | 0 | -1.12 | 0.84 | inactive
Or10j7 | 1 | low cell count without drug only | -1.69 | -2.19 | -0.22 | 0.79 | inactive
Mars2 | 1 | no change with or without drug | 0 | 0 | 0.11 | 0.94 | inactive
Gm10336 | 1 | no change with or without drug | 0.45 | 0.17 | 0.45 | 0.98 | inactive
Exoc2 | 1 | high cell count with doxorubicin only | 2.25 | -0.17 | 2.59 | 1.14 | inactive
Tmem270 | 1 | no change with or without drug | -0.9 | 0 | -0.79 | 0.86 | inactive
Afmid | 1 | no change with or without drug | 0.11 | -0.84 | 0.9 | 0.95 | inactive
Tas2r114 | 1 | no change with or without drug | 0.79 | 0.34 | 0.67 | 1.01 | inactive
Akr1b8 | 1 | no change with or without drug | -1.57 | -0.17 | -1.46 | 0.8 | inactive
Npm2 | 1 | no change with or without drug | 1.8 | -0.51 | 2.47 | 1.1 | inactive
Rtf2 | 1 | no change with or without drug | 1.69 | 0 | 1.91 | 1.09 | inactive
Rtf2 | 2 | no change with or without drug | -0.79 | -0.67 | -0.22 | 0.87 | inactive
Aup1 | 1 | no change with or without drug | 0 | 1.18 | -0.67 | 0.94 | inactive
Csnk1g2 | 1 | no change with or without drug | -0.67 | 1.18 | -1.35 | 0.88 | inactive
